{"source": "PubChem BioAssay AID1259425 (University of Nebraska Medical Center, 2018)", "assay": "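Find knockdowns that reproduce the gene expression pattern seen when KSR1 is lost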 (primary screen)", "cell system": "HCT116 human colon cancer cells", "knock-down reagent": "siRNA pool against human genes, 50 nM siRNA", "read-out": "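After 50 nM siRNA pool, branched-DNA assay measures six marker transcripts per well, minus blank, normalised to the geometric mean of two housekeeping transcripts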", "reading the numbers": "BNIP3L mRNA: higher = more BNIP3L transcript after knockdown; NDRG1 mRNA: higher = more NDRG1 transcript after knockdown", "note": "Shown is one part, drawn at random, of about 14,000 deposited reagents. The numbers tell different reagents against one gene apart. Not all columns of the deposit are shown. Not given: the time to read-out."}
{"target": "UNKL", "reagent": 1, "BNIP3L mRNA, set 1": 0.101, "NDRG1 mRNA, set 1": 0.0693}
{"target": "UNKL", "reagent": 2, "BNIP3L mRNA, set 1": 0.0985, "NDRG1 mRNA, set 1": 0.311}
{"target": "AKR1A1", "reagent": 1, "BNIP3L mRNA, set 1": 0.126, "NDRG1 mRNA, set 1": 0.106}
{"target": "DCLK3", "reagent": 1, "BNIP3L mRNA, set 1": 0.0504, "NDRG1 mRNA, set 1": 0.147}
{"target": "ZDHHC11", "reagent": 1, "BNIP3L mRNA, set 1": 0.163, "NDRG1 mRNA, set 1": 0.515}
{"target": "VAT1L", "reagent": 1, "BNIP3L mRNA, set 1": 0.144, "NDRG1 mRNA, set 1": 0.0653}
{"target": "CSDC2", "reagent": 1, "BNIP3L mRNA, set 1": 0.22, "NDRG1 mRNA, set 1": 0.671}
{"target": "TBC1D1", "reagent": 1, "BNIP3L mRNA, set 1": 0.127, "NDRG1 mRNA, set 1": 0.125}
{"target": "PRMT2", "reagent": 1, "BNIP3L mRNA, set 1": 0.0701, "NDRG1 mRNA, set 1": 0.0848}
{"target": "RNF5", "reagent": 1, "BNIP3L mRNA, set 1": 0.11, "NDRG1 mRNA, set 1": 0.245}
{"target": "TMEM109", "reagent": 1, "BNIP3L mRNA, set 1": 0.0773, "NDRG1 mRNA, set 1": 0.194}
{"target": "FOXD4", "reagent": 1, "BNIP3L mRNA, set 1": 0.043, "NDRG1 mRNA, set 1": 0.465}
{"target": "NPTX2", "reagent": 1, "BNIP3L mRNA, set 1": 0.139, "NDRG1 mRNA, set 1": 0.157}
{"target": "PRSS21", "reagent": 1, "BNIP3L mRNA, set 1": 0.145, "NDRG1 mRNA, set 1": 0.354}
{"target": "PRF1", "reagent": 1, "BNIP3L mRNA, set 1": 0.168, "NDRG1 mRNA, set 1": 0.0752}
{"target": "INSL3", "reagent": 1, "BNIP3L mRNA, set 1": 0.108, "NDRG1 mRNA, set 1": 0.3}
{"target": "H3C7", "reagent": 1, "BNIP3L mRNA, set 1": 0.101, "NDRG1 mRNA, set 1": 0.0906}
{"target": "HTRA2", "reagent": 1, "BNIP3L mRNA, set 1": 0.102, "NDRG1 mRNA, set 1": 0.126}
{"target": "SNRNP25", "reagent": 1, "BNIP3L mRNA, set 1": 0.0771, "NDRG1 mRNA, set 1": 0.21}
{"target": "IGSF6", "reagent": 1, "BNIP3L mRNA, set 1": 0.098, "NDRG1 mRNA, set 1": 0.267}
{"target": "METTL4", "reagent": 1, "BNIP3L mRNA, set 1": 0.0943, "NDRG1 mRNA, set 1": 0.381}
{"target": "EIF1B", "reagent": 1, "BNIP3L mRNA, set 1": 0.0959, "NDRG1 mRNA, set 1": 0.208}
{"target": "SPP2", "reagent": 1, "BNIP3L mRNA, set 1": 0.116, "NDRG1 mRNA, set 1": 0.225}
{"target": "ZFY", "reagent": 1, "BNIP3L mRNA, set 1": 0.107, "NDRG1 mRNA, set 1": 0.358}
{"target": "SESN2", "reagent": 1, "BNIP3L mRNA, set 1": 0.103, "NDRG1 mRNA, set 1": 0.476}
{"target": "DICER1", "reagent": 1, "BNIP3L mRNA, set 1": 0.14, "NDRG1 mRNA, set 1": 0.502}
{"target": "DOCK6", "reagent": 1, "BNIP3L mRNA, set 1": 0.06, "NDRG1 mRNA, set 1": 0.201}
{"target": "ZNF415", "reagent": 1, "BNIP3L mRNA, set 1": 0.0698, "NDRG1 mRNA, set 1": 0.0731}
{"target": "BTBD3", "reagent": 1, "BNIP3L mRNA, set 1": 0.0724, "NDRG1 mRNA, set 1": 0.285}
{"target": "CLK2", "reagent": 1, "BNIP3L mRNA, set 1": 0.0738, "NDRG1 mRNA, set 1": 0.142}
{"target": "APOBEC3G", "reagent": 1, "BNIP3L mRNA, set 1": 0.0773, "NDRG1 mRNA, set 1": 0.11}
{"target": "PLVAP", "reagent": 1, "BNIP3L mRNA, set 1": 0.3, "NDRG1 mRNA, set 1": 0.426}
{"target": "MANSC1", "reagent": 1, "BNIP3L mRNA, set 1": 0.117, "NDRG1 mRNA, set 1": 0.148}
{"target": "RPL8", "reagent": 1, "BNIP3L mRNA, set 1": 0.673, "NDRG1 mRNA, set 1": 0.842}
{"target": "PLEKHA8", "reagent": 1, "BNIP3L mRNA, set 1": 0.093, "NDRG1 mRNA, set 1": 0.6}
{"target": "BBC3", "reagent": 1, "BNIP3L mRNA, set 1": 0.226, "NDRG1 mRNA, set 1": 0.133}
